Experimental data taken from PubChem BioAssay AID256 (DTP/NCI, 2004).
The list is a part of this screen's results and no random one: it is rich in T/C values a quarter to a half above the control, in often repeated tests (any T/C) and in doses without a T/C. Other doses and runs of a compound stand elsewhere. T/C: endpoint of the treated group in % of that of the vehicle group. Some doses have a count of surviving animals in place of a T/C: the source files T/C as zero there, which appears to mark a toxic dose or a test without result, not a measured value. Some survivor counts are full or nearly so, which does not show that the dose was tolerated: the source hardly ever lists a survival T/C far under the control, and the zero likely stands for such cases as well. Counts of survivors are from the toxicity check (mostly the fifth day) where no day follows; animals may have died later. Schedules are NCI's codes, read here as Q, the interval in days (D) or hours (H), X, the number of doses. Some doses were run more than once; their values stand side by side, smallest first. Counts like (3×) stand for listed records that agree. Some schedules carry Z or #; the key to these is not given. For survival time, the PubChem record calls one and a half times the control and up active, and a quarter to a half above the control has no call in these data; cut-offs in other NCI protocols can differ. Some T/C values are followed by the survivors on the day toxicity was checked, most often the fifth; where none is given, no animal had died by that day.

System: CD2F1 mice, L1210 leukemia ip, survival T/C
Assay: NCI In Vivo Anticancer Drug Screen. Data for tumor model L1210 Leukemia (intraperitoneal) in CD2F1 (CDF1) mice
Conditions: higher T/C = longer survival
Outline: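 Transplantable tumor in mice; compound-treated vs vehicle-treated groups. Read-out = treated/control ratio of the measured endpoint.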

[1] = T/C endpoint: mean survival time, dose: 32.0 mg/kg/injection, schedule: Q01DX001 (ip), vehicle: saline
[2] = T/C endpoint: median survival time, dose: 5.0 mg/kg/injection, schedule: Q01DX001 (ip), vehicle: Klucel (hydroxypropylcellulose) (HPC)

## N[C@@H](Cc1ccc(N(CCCl)CCCl)cc1)C(=O)O
T/C endpoint: mean survival time, dose: 8.0 mg/kg/injection, schedule: Q04DX003 (ip), vehicle: saline, evaluated on day 5
  T/C: 383 % of control
T/C endpoint: mean survival time, dose: 8.0 mg/kg/injection, schedule: Q04DX003 (ip), vehicle: saline, evaluated on day 30
  T/C: 108, 218, 223, 234 % of control
T/C endpoint: mean survival time, dose: 8.0 mg/kg/injection, schedule: Q04DX003 (ip), vehicle: saline, evaluated on day 45
  T/C: 230 % of control
T/C endpoint: mean survival time, dose: 8.0 mg/kg/injection, schedule: Q## X010 (ip), vehicle: saline
  T/C: 132 % of control
T/C endpoint: mean survival time, dose: 8.0 mg/kg/injection, schedule: Q## X016 (oral), vehicle: saline
  T/C: 125 % of control
T/C endpoint: mean survival time, dose: 10.0 mg/kg/injection, schedule: Q01DX001 (ip), vehicle: saline
  T/C: 139, 140, 215, 228, 325 % of control
T/C endpoint: mean survival time, dose: 15.0 mg/kg/injection, schedule: Q01DX001 (ip), vehicle: saline
  T/C: 260, 288, 377, 426, 501 % of control
T/C endpoint: mean survival time, dose: 15.0 mg/kg/injection, schedule: Q01DX007 (ip), vehicle: saline with Tween-80
  survivor count: 0 of 6
T/C endpoint: mean survival time, dose: 15.0 mg/kg/injection, schedule: Q01DX009 (ip), vehicle: saline with Tween-80
  survivor count: 0 of 6
T/C endpoint: mean survival time, dose: 16.0 mg/kg/injection, schedule: Q01DX001 (ip), vehicle: Klucel (hydroxypropylcellulose) (HPC)
  T/C: 144 % of control
T/C endpoint: mean survival time, dose: 16.0 mg/kg/injection, schedule: Q01DX001 (ip), vehicle: other
  T/C: 149 % of control
T/C endpoint: mean survival time, dose: 16.0 mg/kg/injection, schedule: Q01DX001 (ip), vehicle: saline, evaluated on day 30
  T/C: 129, 150, 200, 288 % of control
T/C endpoint: mean survival time, dose: 16.0 mg/kg/injection, schedule: Q01DX001 (ip), vehicle: saline, evaluated on day 45
  T/C: 245 % of control
T/C endpoint: mean survival time, dose: 16.0 mg/kg/injection, schedule: Q01DX005 (oral), vehicle: saline
  survivor count: 8 of 10
T/C endpoint: mean survival time, dose: 16.0 mg/kg/injection, schedule: Q01DX009 (ip), vehicle: Klucel (hydroxypropylcellulose) (HPC)
  survivor count: 6 of 6
T/C endpoint: mean survival time, dose: 16.0 mg/kg/injection, schedule: Q01DX009 (ip), vehicle: saline
  survivor count: 10 of 10 and 6 of 6 (2×)
T/C endpoint: mean survival time, dose: 16.0 mg/kg/injection, schedule: Q04DX003 (ip), vehicle: saline, evaluated on day 30
  T/C: 96 and 147 % of control
T/C endpoint: mean survival time, dose: 16.0 mg/kg/injection, schedule: Q04DX003 (ip), vehicle: saline, evaluated on day 45
  T/C: 170 % of control
T/C endpoint: mean survival time, dose: 16.0 mg/kg/injection, schedule: Q04DX003 (ip), vehicle: saline
  survivor count: 6 of 6
T/C endpoint: mean survival time, dose: 16.0 mg/kg/injection, schedule: Q## X010 (oral), vehicle: saline
  survivor count: 10 of 10
T/C endpoint: mean survival time, dose: 30.0 mg/kg/injection, schedule: Q01DX007 (ip), vehicle: saline with Tween-80
  survivor count: 0 of 6
T/C endpoint: mean survival time, dose: 30.0 mg/kg/injection, schedule: Q01DX009 (ip), vehicle: saline with Tween-80
  survivor count: 0 of 6
T/C endpoint: mean survival time, dose: 32.0 mg/kg/injection, schedule: Q01DX001 (ip), vehicle: DMSO
  survivor count: 4 of 6
T/C endpoint: mean survival time, dose: 32.0 mg/kg/injection, schedule: Q01DX001 (ip), vehicle: Klucel (hydroxypropylcellulose) (HPC)
  survivor count: 4 of 6
[1]
  T/C: 108 [5 of 6 alive], 139 [4 of 6 alive], 166 % of control
  survivor count: 7 of 10 and 5 of 6
T/C endpoint: mean survival time, dose: 32.0 mg/kg/injection, schedule: Q01DX009 (ip), vehicle: Klucel (hydroxypropylcellulose) (HPC)
  survivor count: 4 of 6
T/C endpoint: mean survival time, dose: 32.0 mg/kg/injection, schedule: Q04DX003 (ip), vehicle: saline
  survivor count: 3 of 6 and 7 of 10
T/C endpoint: mean survival time, dose: 32.0 mg/kg/injection, schedule: Q## X016 (oral), vehicle: saline
  T/C: 145 % of control
T/C endpoint: mean survival time, dose: 64.0 mg/kg/injection, schedule: Q01DX001 (ip), vehicle: saline with Tween-80
  survivor count: 1 of 6
T/C endpoint: mean survival time, dose: 64.0 mg/kg/injection, schedule: Q01DX001 (ip), vehicle: saline
  survivor count: 0 of 10 and 2 of 6
T/C endpoint: mean survival time, dose: 128.0 mg/kg/injection, schedule: Q01DX001 (ip), vehicle: saline with Tween-80
  survivor count: 0 of 6
T/C endpoint: mean survival time, dose: 256.0 mg/kg/injection, schedule: Q01DX001 (ip), vehicle: saline with Tween-80
  survivor count: 0 of 6
T/C endpoint: median survival time, dose: 0.5 mg/kg/injection, schedule: Q01DX005 (ip), vehicle: saline
  T/C: 149 % of control
T/C endpoint: median survival time, dose: 0.5 mg/kg/injection, schedule: Q01DX009 (ip), vehicle: saline
  T/C: 127 % of control
T/C endpoint: median survival time, dose: 1.0 mg/kg/injection, schedule: Q01DX005 (ip), vehicle: saline
  T/C: 144 % of control
T/C endpoint: median survival time, dose: 3.75 mg/kg/injection, schedule: Q01DX009 (ip), vehicle: saline
  T/C: 128 % of control
[2]
  T/C: 137 % of control
  survivor count: 4 of 6
T/C endpoint: median survival time, dose: 6.0 mg/kg/injection, schedule: Q04DX003 (ip), vehicle: Klucel (hydroxypropylcellulose) (HPC)
  survivor count: 2 of 6
T/C endpoint: median survival time, dose: 7.5 mg/kg/injection, schedule: Q01DX009 (ip), vehicle: saline
  T/C: 128 and 135 % of control
T/C endpoint: median survival time, dose: 10.0 mg/kg/injection, schedule: Q01DX001 (ip), vehicle: Klucel (hydroxypropylcellulose) (HPC)
  survivor count: 0 of 6
T/C endpoint: median survival time, dose: 10.0 mg/kg/injection, schedule: Q01DX001 (ip), vehicle: saline, evaluated on day 5
  T/C: 170 and 187 % of control
T/C endpoint: median survival time, dose: 10.0 mg/kg/injection, schedule: Q01DX001 (ip), vehicle: saline, evaluated on day 30
  T/C: 182 % of control
T/C endpoint: median survival time, dose: 10.0 mg/kg/injection, schedule: Q01DX001 (ip), vehicle: saline, evaluated on day 45
  T/C: 168, 182, 189 % of control
T/C endpoint: median survival time, dose: 10.0 mg/kg/injection, schedule: Q01DX001 (ip), vehicle: saline, evaluated on day 60
  T/C: 154 and 185 % of control
T/C endpoint: median survival time, dose: 12.0 mg/kg/injection, schedule: Q04DX003 (ip), vehicle: Klucel (hydroxypropylcellulose) (HPC)
  survivor count: 0 of 6
T/C endpoint: median survival time, dose: 15.0 mg/kg/injection, schedule: Q01DX001 (ip), vehicle: saline, evaluated on day 5
  T/C: 183 and 221 % of control
T/C endpoint: median survival time, dose: 15.0 mg/kg/injection, schedule: Q01DX001 (ip), vehicle: saline, evaluated on day 30
  T/C: 195 and 370 % of control
T/C endpoint: median survival time, dose: 15.0 mg/kg/injection, schedule: Q01DX001 (ip), vehicle: saline, evaluated on day 45
  T/C: 194, 198, 209, 226, 548 % of control
T/C endpoint: median survival time, dose: 15.0 mg/kg/injection, schedule: Q01DX001 (ip), vehicle: saline, evaluated on day 60
  T/C: 178, 207, 216 % of control
T/C endpoint: median survival time, dose: 20.0 mg/kg/injection, schedule: Q01DX001 (ip), vehicle: Klucel (hydroxypropylcellulose) (HPC)
  survivor count: 0 of 6 and 6 of 6
T/C endpoint: median survival time, dose: 20.0 mg/kg/injection, schedule: Q01DX001 (ip), vehicle: saline, evaluated on day 30
  T/C: 344 % of control
T/C endpoint: median survival time, dose: 20.0 mg/kg/injection, schedule: Q01DX001 (ip), vehicle: saline, evaluated on day 45
  T/C: 210, 523, 535, 548, 576 % of control
T/C endpoint: median survival time, dose: 20.0 mg/kg/injection, schedule: Q01DX001 (ip), vehicle: saline, evaluated on day 60
  T/C: 414 % of control
T/C endpoint: median survival time, dose: 30.0 mg/kg/injection, schedule: Q01DX009 (ip), vehicle: saline
  survivor count: 1 of 6 and 4 of 6
